Earlier results as cited in patent publication US11478431B2, “Ingestible medical delivery devices” (Alcresta Therapeutics, Inc., priority 2017, dated 2022).
At least one structure is not confirmed: it was looked up by name or label, or the drawing left a doubt.

Test system: serum neurofilament light chain, a biomarker of axonal injury
Conditions: collegiate football players randomized to 2, 4, or 6 g/day of DHA or placebo for 189 days (including 80 pre-season days); irrespective of dose

## CC/C=C\C/C=C\C/C=C\C/C=C\C/C=C\C/C=C\CCC(=O)O [DHA, docosahexaenoic acid]
  values of serum neurofilament light chain versus placebo: lower values of serum neurofilament light chain
